# Assay results published in patent US20250066452A1, “SYNTHETIC AMPHIPATHIC HELICAL PEPTIDES AND TREATMENT METHODS USING SYNTHETIC AMPHIPATHIC HELICAL PEPTIDES” (UNIVERSITY OF MARYLAND, BALTIMORE, priority 2022, published 2025).
# The chains behind the UniProt entries cited, without tags or fusion partners. Where a name states a change or a piece, a line headed by the entry shows the natural chain unless it says otherwise.
# UniProt P16671: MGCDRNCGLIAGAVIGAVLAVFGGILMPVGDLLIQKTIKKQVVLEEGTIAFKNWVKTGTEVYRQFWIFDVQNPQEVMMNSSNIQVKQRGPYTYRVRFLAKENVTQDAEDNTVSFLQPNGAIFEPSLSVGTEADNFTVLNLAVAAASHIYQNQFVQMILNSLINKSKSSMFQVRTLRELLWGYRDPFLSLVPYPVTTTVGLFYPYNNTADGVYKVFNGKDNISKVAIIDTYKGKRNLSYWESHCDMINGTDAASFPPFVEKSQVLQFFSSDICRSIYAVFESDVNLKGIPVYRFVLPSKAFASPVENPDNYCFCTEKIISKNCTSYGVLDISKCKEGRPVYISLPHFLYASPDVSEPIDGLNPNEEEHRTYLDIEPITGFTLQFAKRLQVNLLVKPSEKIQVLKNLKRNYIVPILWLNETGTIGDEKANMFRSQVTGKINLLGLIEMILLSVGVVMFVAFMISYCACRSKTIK
# Not every detail of the peptide structures is certain; ends, links or a residue may be inferred. No end group written: not given here.
# Key:
# [1] = system: Complete Freund's Adjuvant (CFA) animal model of chronic inflammatory pain; assay: Thermal hyperalgesia test (incremental hot plate) in CFA model of chronic inflammatory pain; type: in vivo, mice; conditions: for heat hyperalgesia (response temperature): Example 2, FIG. 4, 24 h, 3 d, 7 d
# Experimental: The L37pA peptide having the sequence […] (SEQ ID NO: 2) was synthesized by a solid-phase procedure. […] The L37pA and L3D-37pA peptides were formulated into both an intramuscular injectable preparation and a hydrogel or lotion preparation. The intramuscular (IM) injectable formulation contains 0.5 μg/μl of the peptide, with an injection dose of 2 μl/g mouse weight, which equals approximately 20 μg peptide per injection. The hydrogel and lotion formulations each contains 0.2 mg/ml of the peptide. 20-50 μl of the formulations are applied, which is approximately 4-10 μg peptide per single skin treatment. Topical hydrogel and lotion formulations containing a vehicle without any peptide were prepared as additional negative controls.
# In this experiment, the peptide was administered via intramuscular injections. The first group of mice (“CFA group”) were injected with 30 μl of Complete Freund's Adjuvant (CFA) in the plantar surface of the left hind paw. The second group of mice (“Vehicle Group”) were injected with Vehicle (saline) instead of CFA. For each of the CFA and Vehicle Groups, the mice were then injected once a day with the following formulations, with “n” representing the number of mice receiving each formulation: […]
# Thermal hyperalgesia was performed before the CFA injection. The measurement of baseline thermosensitivity was actually carried out before time 0, but it was assumed that the baseline remained the same at time 0. Injection of CFA in the paw and the intramuscular injection of peptide were performed at the same time. Injections of CFA and peptides were performed in left paws. The right paws of the mice remained intact and were used for comparison.
# After administering the L37pA or L3D-37pA peptide, the thermal hyperalgesia test was performed for 30 minutes at 3, 24, and 72 hours post CFA-injection. In the thermal hyperalgesia test, an incremental hot plate with an automatic cut-off temperature of 50° C. was used to induce the nocifensive behaviors of licking a hind paw to identify the thresholds for noxious heat and assess the thermal hyperalgesia. The temperature of the plate at the time when the licking occurred was recorded. The peptides were injected every single day and at 30 minutes prior to the behavior test. In addition, to investigate the effects of the peptides on inflammatory swelling caused by the CFA injection, the thicknesses of the left and right hind paws of the mice were measured post-peptide administration for signs of inflammation. In the figures, *p≤0.05, **p≤0.01, and ***p≤0.001 show comparisons to the Vehicle/L3D-37pA controls at each timepoint.
# In this experiment, the peptide was administered topically once a day. The first group of mice (“CFA group”) were injected with 30 μl of Complete Freund's Adjuvant (CFA) in the plantar surface of the left hind paw. The second group of mice (“Vehicle Group”) were injected with Vehicle (saline) instead of CFA. For each of the CFA and Vehicle groups, the topical formulation was then administered to the mice according to the following experiment design:
# The topical application of the peptides was carried out 21 hours after the saline or CFA injection and applied […] in the following days. In case of topical application of peptide, the peptides were applied 3 hours before the second measurement of thermosensitivity and applied […] afterwards. Thermal hyperalgesia was performed before administration and after administering the L37pA, L3D-37 pA, or vehicle, at 30 minutes after administration. The thermal hyperalgesia test was performed as described above. In addition, the thicknesses of the left and right hind paws of the mice were measured post-peptide administration for signs of inflammation. In the figures, *p 0.05, **p 0.01, and ***p 0.001 show comparisons to the saline/L3D-37pA controls at each timepoint.
# The applicant performed heat hyperalgesia tests similar to the manner discussed above in Example 1. […]
# [2] = system: Complete Freund's Adjuvant (CFA) animal model of chronic inflammatory pain; assay: Hind paw thickness (inflammatory swelling) in CFA model; type: in vivo, mice
# [3] = system: PSNL animal model of chronic neuropathic pain; assay: Mechanical allodynia test (von Frey filaments) in PSNL model of neuropathic pain; type: in vivo, mice; conditions: for paw withdrawal threshold, left (operated) hind paw / neuropathic pain 24 hours after the third peptide application: PSNL; for paw withdrawal threshold, left (operated) hind paw: topical 0.2 mg/ml daily, 30 minutes after application, from day 3; for paw withdrawal threshold, contralateral (non-operated) right hind paw: 30 minutes before and after daily gel application; for neuropathic pain 24 hours after the third peptide application: repetitive daily skin application
# CD36 = target: T1, CD36 (Homo sapiens, UniProt P16671); assay: IL-8 in conditioned medium (ELISA) of CD36-expressing HEK293 cells after 20 hours incubation with CD36 ligands; type: cell-based
# T1 construct: expressed in transfected cells; host or cells: HEK293
# Experimental: Following 20 hours incubation of wild-type (WT) and CD36-expressing (CD36+) HEK293 cells with increasing concentrations of CD36 ligands, the IL-8 levels were determined in conditioned medium by ELISA.
# Following 20 hours incubation of CD36-expressing cells with the indicated amounts of the ligands, the IL-8 levels were determined in conditioned medium.
# To study this, the applicant conducted cell culture experiments using wildtype (WT) and CD36+ expressing (CD36+) HEK293 cells, treated with increasing amounts of CD36 ligands. Specifically, the ligands tested were the PAMP lipopolysaccharide (LPS) and the DAMPs high mobility group box 1 protein (HMGB1), Histone H3B, and heat shock protein 60 (HSP60). […] Similarly to HSP60, it is presumed that HSP70 and HSP90 also cause inflammation mediated by the CD36 receptor, and which may be alleviated by the disclosed peptides.
# Additionally, the applicant studied the effects of the above-referenced SAHP L37pA as an inhibitor of CD36-dependent, PAMP/DAMP-induced pro-inflammatory response. See FIGS. 9(a)-9(c) To study this, the applicant conducted cell culture experiments using CD36+ HEK293 cells, treated with increasing amounts of CD36 ligands. […] As controls, no treatment, L37pA alone, and L3D alone were administered.
# As controls, no treatment, L37pA alone, and L3D alone were administered. […] L37pA was especially effective in the case of 1 μg/ml and 2.5 μg/ml HMGB1, relative to administrations of HMGB1 alone.
# In FIG. 9(c), the DAMP Histone H3B was administered in the amount of 25 μg/ml alone, in combination with 10 μg/ml L37pA, 25 μg/ml L37pA, 10 μg/ml L3D and 25 µg/ml L3D. As controls, no treatment, 10 μg/ml L37pA alone, 25 μg/ml L37pA alone, 10 μg/ml L3D alone, and 25 μg/ml L3D alone were administered.
sequence,measurement,setting,value
DWLKAFYDKVAEKLKEAFPDWLKAFYDKVAEKLKEAF [Peptide L37pA],withdrawal latencies to thermal stimuli,"[1]; CFA in left paw, intramuscular peptide approx. 20 μg per injection once a day, 3 hours after CFA (FIG. 2(a))",significant reduction of withdrawal latencies
same,withdrawal latencies to thermal stimuli,"[1]; CFA in left paw, intramuscular peptide approx. 20 μg per injection once a day, 24 hours after CFA (FIG. 2(a))",significantly increased withdrawal latencies to thermal stimuli
same,withdrawal latencies to thermal stimuli,"[1]; CFA in left paw, intramuscular peptide approx. 20 μg per injection once a day, three days after CFA (FIG. 2(a))",same as the Sal groups
same,withdrawal latencies to thermal stimuli,"[1]; CFA in left paw, topical application 0.2 mg/ml, 24 hours and 3 days after CFA (FIG. 3(a))",significant increase of withdrawal latencies to thermal stimuli
same,pain sensation in response to stimuli,"[1]; CFA model, topical hydrogel or lotion, and local intramuscular injection",statistically significant reversal of pain sensation
same,time after peptide application to return of withdrawal temperature of inflamed paws to control levels,"[1]; CFA, topical hydrogel 0.2 mg/ml or local intramuscular injection",≤ 30 min
same,paw withdrawal temperature of inflamed paws,"[1]; CFA, topical hydrogel or local intramuscular injection, within 3 days post-CFA (FIGS. 2(a), 3(a))",returned the withdrawal temperature of inflamed paws to control levels
same,heat hyperalgesia (response temperature),"[1]; CFA, intramuscular injection",significantly reversed heat hyperalgesia
same,heat hyperalgesia (response temperature),"[1]; CFA, topical application",significantly reversed heat hyperalgesia
same,heat hyperalgesia compared to the inactive L3D-L37pA peptide,"[1]; Example 3, FIGS. 5(a)-5(e), CFA, topical application once a day",improved heat hyperalgesia compared to the inactive L3D-L37pA peptide at all timepoints
same,withdrawal latencies to thermal stimuli,"[1]; Vehicle in left paw, topical application, L37pA versus L3D, 3 hours, 24 hours, 3 days",no significant differences
same,withdrawal latencies to thermal stimuli,"[1]; saline in left paw (no inflammation), intramuscular peptide, 3 hours, 24 hours, 3 days, versus control peptide",no difference in their withdrawal latencies to thermal stimuli
same,"inhibitory effect on paw inflammation by thickness, topical application versus intramuscular injection",[2]; CFA model,significantly higher inhibitory effect on paw inflammation
same,thickness of CFA-injected left paws,"[2]; CFA, intramuscular injection, L37pA versus L3D, 3 hours, 24 hours, 3 days (FIG. 2(b))",no significant differences
same,CFA-induced increase in left paw thickness,"[2]; CFA, topical application, 3 hours, 24 hours, 3 days (FIG. 3(b))",does not affect CFA-induced increase in left paw thickness
same,"paw withdrawal threshold, left (operated) hind paw","[3]; Example 4, n=3",relieved the pain in PSNL mice to baseline levels
same,"paw withdrawal threshold, contralateral (non-operated) right hind paw",[3]; Example 4,remained unchanged
same,neuropathic pain 24 hours after the third peptide application,[3]; Example 4,statistically significant alleviation of neuropathic pain
same,"paw withdrawal threshold, left (operated) hind paw","[3]; Example 5, n=4",gradually relieved the pain in PSNL mice to baseline levels
same,"paw withdrawal threshold, contralateral (non-operated) right hind paw",[3]; Example 5,remained unchanged
same,neuropathic pain 24 hours after the third peptide application,[3]; Example 5,statistically significant alleviation of neuropathic pain
same,production of IL-8 relative to LPS alone,"CD36; 10 ng/ml and 100 ng/ml LPS, 10 μg/ml peptide",greatly inhibited the production of IL-8
same,production of IL-8 relative to Histone H3B alone,"CD36; 25 μg/ml Histone H3B, 10 μg/ml and 25 μg/ml peptide",greatly inhibited the production of IL-8 in a dose-dependent manner
same,production of IL-8 relative to HMGB1 alone,"CD36; 0.25, 1 and 2.5 μg/ml HMGB1, 10 μg/ml peptide",greatly inhibited the production of IL-8
